Assay [1] addresses talin clones isolated in the yeast two-hybrid screen (Homo sapiens (Human)) (UniProt Q9Y490). The assay can be described thus: yeast two-hybrid screen.
Assay [2] has as its target GST-talin head (human talin1 head region 1-435) (human) (UniProt Q9Y490). The assay can be described thus: GST pull-down with recombinant proteins.
Assay [3] has as its target GST-talin head Arg^358->Gln mutant (human) (UniProt Q9Y490). The assay can be described thus: GST pull-down.
Assay [4] deals with GST-talin head Lys^357->Gln mutant (human) (UniProt Q9Y490). The assay can be described thus: GST pull-down.
For assay [5], the target named is GST-talin head (human talin1 head region 1-435) (human) (UniProt Q9Y490). As to the kind of experiment: GST pull-down competition; competitor His-β1-integrin tail.
In assay [6] the target is talin (Homo sapiens (Human)) (UniProt Q9Y490). As to the kind of experiment: co-immunoprecipitation of c-Myc-tagged chimeras.
Assay [7] shares this target. The assay can be described thus: co-immunoprecipitation with talin, compared with wild-type PIPKIγ661.

Amino acid sequences for entries named in this document (tags omitted). A change or cut given only in a name is not applied to a line headed by its entry.
UniProt Q9Y490: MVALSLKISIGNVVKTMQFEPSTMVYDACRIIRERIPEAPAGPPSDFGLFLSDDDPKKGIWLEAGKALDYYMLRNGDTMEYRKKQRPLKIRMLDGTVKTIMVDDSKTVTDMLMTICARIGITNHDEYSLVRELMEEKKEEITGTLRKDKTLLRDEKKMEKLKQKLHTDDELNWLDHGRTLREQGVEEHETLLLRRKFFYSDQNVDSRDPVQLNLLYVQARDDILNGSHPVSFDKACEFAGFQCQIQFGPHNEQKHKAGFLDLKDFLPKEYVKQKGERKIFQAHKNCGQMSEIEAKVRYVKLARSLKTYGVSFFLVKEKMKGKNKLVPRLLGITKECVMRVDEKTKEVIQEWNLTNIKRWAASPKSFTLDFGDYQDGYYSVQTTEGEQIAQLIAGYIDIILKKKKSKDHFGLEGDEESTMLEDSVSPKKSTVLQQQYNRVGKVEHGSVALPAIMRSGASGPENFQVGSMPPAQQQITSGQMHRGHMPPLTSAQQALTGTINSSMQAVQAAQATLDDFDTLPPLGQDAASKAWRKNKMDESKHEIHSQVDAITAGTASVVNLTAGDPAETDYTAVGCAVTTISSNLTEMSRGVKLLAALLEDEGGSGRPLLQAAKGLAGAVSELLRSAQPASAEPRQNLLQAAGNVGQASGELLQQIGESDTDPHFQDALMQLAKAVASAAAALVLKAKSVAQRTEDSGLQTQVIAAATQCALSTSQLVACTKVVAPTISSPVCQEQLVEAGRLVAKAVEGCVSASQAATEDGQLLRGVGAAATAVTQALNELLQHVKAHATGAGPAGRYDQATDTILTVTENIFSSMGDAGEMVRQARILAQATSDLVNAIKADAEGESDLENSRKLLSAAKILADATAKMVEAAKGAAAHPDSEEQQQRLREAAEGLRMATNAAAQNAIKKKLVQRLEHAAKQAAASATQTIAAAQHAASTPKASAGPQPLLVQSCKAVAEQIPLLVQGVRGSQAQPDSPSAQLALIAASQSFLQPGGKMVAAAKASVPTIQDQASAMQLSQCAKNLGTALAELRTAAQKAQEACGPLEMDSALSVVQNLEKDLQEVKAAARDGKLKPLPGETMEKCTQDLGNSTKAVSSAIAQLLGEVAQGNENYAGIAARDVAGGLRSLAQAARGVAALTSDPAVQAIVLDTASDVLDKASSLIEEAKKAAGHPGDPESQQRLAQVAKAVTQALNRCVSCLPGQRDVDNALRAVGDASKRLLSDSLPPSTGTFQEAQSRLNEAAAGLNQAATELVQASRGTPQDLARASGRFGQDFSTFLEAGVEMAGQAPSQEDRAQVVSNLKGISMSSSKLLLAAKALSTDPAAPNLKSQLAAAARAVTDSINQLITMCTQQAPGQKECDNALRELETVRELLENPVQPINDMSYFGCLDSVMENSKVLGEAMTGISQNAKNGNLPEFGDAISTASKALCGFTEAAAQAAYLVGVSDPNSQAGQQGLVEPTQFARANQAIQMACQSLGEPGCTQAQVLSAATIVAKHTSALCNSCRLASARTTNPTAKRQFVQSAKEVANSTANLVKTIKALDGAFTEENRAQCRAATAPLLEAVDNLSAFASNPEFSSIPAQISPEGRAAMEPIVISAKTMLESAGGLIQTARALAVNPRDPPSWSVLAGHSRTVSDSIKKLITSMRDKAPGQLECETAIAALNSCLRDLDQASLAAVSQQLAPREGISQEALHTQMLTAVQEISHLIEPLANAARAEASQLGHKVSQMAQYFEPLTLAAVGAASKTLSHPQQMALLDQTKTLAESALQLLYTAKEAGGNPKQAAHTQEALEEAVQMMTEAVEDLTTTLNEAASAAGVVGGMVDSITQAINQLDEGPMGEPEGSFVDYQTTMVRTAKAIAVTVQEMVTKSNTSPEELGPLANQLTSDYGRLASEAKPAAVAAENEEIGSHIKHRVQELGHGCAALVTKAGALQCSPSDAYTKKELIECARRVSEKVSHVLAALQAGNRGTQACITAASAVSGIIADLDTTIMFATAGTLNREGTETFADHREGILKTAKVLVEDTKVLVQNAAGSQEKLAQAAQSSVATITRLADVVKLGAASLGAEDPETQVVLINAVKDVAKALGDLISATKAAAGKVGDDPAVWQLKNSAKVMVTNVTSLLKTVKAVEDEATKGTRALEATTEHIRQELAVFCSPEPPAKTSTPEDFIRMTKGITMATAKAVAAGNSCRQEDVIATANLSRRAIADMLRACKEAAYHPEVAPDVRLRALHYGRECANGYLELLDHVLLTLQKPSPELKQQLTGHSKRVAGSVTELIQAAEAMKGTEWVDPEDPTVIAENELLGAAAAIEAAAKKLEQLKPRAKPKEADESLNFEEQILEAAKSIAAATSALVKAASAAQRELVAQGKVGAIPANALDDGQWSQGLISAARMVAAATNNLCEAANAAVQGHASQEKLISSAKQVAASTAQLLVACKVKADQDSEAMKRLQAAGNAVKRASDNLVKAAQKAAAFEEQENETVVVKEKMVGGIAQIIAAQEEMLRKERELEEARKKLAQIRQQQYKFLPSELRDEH
UniProt O70161: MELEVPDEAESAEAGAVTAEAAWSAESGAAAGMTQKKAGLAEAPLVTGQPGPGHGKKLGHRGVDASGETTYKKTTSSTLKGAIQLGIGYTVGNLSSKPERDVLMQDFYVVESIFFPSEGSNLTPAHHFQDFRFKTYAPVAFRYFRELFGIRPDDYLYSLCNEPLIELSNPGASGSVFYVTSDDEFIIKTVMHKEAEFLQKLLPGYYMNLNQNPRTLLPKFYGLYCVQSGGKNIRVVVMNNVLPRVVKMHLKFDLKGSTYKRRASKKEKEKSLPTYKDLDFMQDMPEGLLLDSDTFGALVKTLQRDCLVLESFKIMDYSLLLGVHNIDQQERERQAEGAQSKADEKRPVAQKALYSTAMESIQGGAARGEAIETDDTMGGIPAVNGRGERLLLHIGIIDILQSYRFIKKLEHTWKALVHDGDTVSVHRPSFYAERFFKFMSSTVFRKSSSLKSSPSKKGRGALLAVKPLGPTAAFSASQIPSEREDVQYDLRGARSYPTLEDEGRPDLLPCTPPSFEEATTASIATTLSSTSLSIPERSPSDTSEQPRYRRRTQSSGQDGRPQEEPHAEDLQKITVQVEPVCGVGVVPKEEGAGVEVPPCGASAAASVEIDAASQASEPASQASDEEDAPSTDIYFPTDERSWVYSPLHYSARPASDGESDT

These are yes or no findings as the source states them, for the method shown. For some assays here: Binding seen in cells or lysates may run through a third protein. Some binding calls cover weakened binding; strength is not graded here.

On to “178-residue C-terminal region of PIPKIγ661 (yeast two-hybrid bait) (from UniProt O70161 484-661)”, for which the binding entry in assay [1] is reported as “binds”. For the substance “His-PIPKIγ661 C-terminus (439-661) Tyr644 to Phe mutant (from UniProt O70161 439-661)”, the binding result in assay [2] is reported as “binds”.

Take “His-PIPKIγ661 C-terminus (439-661) Tyr644/649 to Phe mutant (from UniProt O70161 439-661)”: in assay [2], the binding result was “binds”. “His-PIPKIγ661 C-terminus (439-661) Tyr649 to Phe mutant (from UniProt O70161 439-661)”: in assay [2], the binding result is reported as “binds”. As for “His-PIPKIγ661 C-terminus, wild-type (439-661) (from UniProt O70161 439-661)”, the binding entry in assay [3], in assay [4], in assay [2] and in assay [5] was “binds” in each case. Take “PIPKIα/γ26 chimera (c-Myc-tagged) (from UniProt Q99755 1-562) (enzyme)”: in assay [6], the binding result was “binds”. Consider “PIPKIγ-E (from UniProt O70161 1-658) (enzyme)”, for which the binding result in assay [7] was “binds”. Same read-out and setting: then “PIPKIγTyr^649->Phe (from UniProt O70161 1-661) (enzyme)”, with “binds”.
